Data set [1] is described as follows: peptide made by a vendor (peptide synthesis; Fmoc-Phe-Alko Resin). To be noted: whole synthesis, scale 100 mg resin.
A short description of data set [2]: general procedure: Fmoc solid-phase peptide synthesis; Fmoc-Phe-Alco Resin. To be noted: whole synthesis, scale 100 mg resin.
The nature of data set [3]: general procedure: Fmoc solid-phase peptide synthesis; Fmoc-Phe Alko Resin. To be noted: whole synthesis, scale 100 mg resin.
Data set [4] is described as follows: general procedure: Fmoc solid-phase peptide synthesis; Fmoc-Phe-Alko Resin (0.67 mmol/g). To be noted: whole synthesis, scale 50 mg resin.

For some assays here: HELM strings list residues between dots; [ac] is acetyl, [am] amide, other brackets name non-standard units. Where no end group is shown, it is not given here.

In turn, DFMIQGGDF gave an isolated mass in data set [1] of 3.6 mg.

In data set [2], DYMIQGGDF returned an isolated mass of 12.8 mg.

On to KFHRVIKDF, for which the isolated mass in data set [1] is 11.7 mg.

Turning to KYHRVIKDF, the isolated mass in data set [3] was 44.9 mg.

PEPTIDE1{G.F.M.C.Q.G.G.D.F}$$$$V2.0 registered an isolated mass in data set [4] of 9.7 mg.

The values above are taken from US7368107B2 (Dainippon Sumitomo Pharma Co., Ltd., priority 1998, dated 2008).
